Measurements from publication PMC8384837.
Where a chain is given by its changes, count along the chain named. Some of the results follow. For some assays here: At the low end of the ranking the order means little.

Tests used:
Details in all cases: yeast three-hybrid, YBZ-1, SC-Leu-His + 0.5 mM 3-AT, 4 days
[1] = molecular target: T1, PUM1 PUF domain R1-QFR S863Q + R864F + Q867R (UniProt Q14671)
T1 sequence: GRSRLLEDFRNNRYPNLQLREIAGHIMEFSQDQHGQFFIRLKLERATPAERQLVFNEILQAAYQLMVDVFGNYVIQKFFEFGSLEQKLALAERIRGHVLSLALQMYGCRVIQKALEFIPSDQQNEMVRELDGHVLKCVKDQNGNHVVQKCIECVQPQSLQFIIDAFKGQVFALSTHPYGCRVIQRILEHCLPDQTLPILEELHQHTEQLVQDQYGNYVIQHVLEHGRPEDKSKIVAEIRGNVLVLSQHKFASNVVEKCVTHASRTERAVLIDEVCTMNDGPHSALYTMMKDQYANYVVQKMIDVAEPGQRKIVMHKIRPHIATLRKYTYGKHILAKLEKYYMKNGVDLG

[2] = molecular target: T2, PUM1 PUF domain R1-QLR S863Q + R864L + Q867R (Homo sapiens) (UniProt Q14671)
T2 sequence: T1 sequence with F37L

[3] = molecular target: T3, PUM1 PUF domain R1-QRR S863Q + Q867R (UniProt Q14671)
T3 sequence: T1 sequence with F37R

[4] = molecular target: T4, PUM1 PUF domain R1-QVK S863Q + R864V + Q867K (UniProt Q14671)
T4 sequence: T1 sequence with F37V, R40K

[5] = molecular target: T5, PUM1 PUF domain R1-QWR S863Q + R864W + Q867R (UniProt Q14671)
T5 sequence: T1 sequence with F37W

[6] = molecular target: T6, PUM1 PUF domain R1-RAV S863R + R864A + Q867V (Homo sapiens) (UniProt Q14671)
T6 sequence: T1 sequence with Q36R, F37A, R40V

[7] = molecular target: T7, PUM1 PUF domain R1-RCL S863R + R864C + Q867L (UniProt Q14671)
T7 sequence: T1 sequence with Q36R, F37C, R40L

[8] = molecular target: T8, PUM1 PUF domain R1-RFI S863R + R864F + Q867I (UniProt Q14671)
T8 sequence: T1 sequence with Q36R, R40I

[9] = molecular target: T9, PUM1 PUF domain R1-RGI S863R + R864G + Q867I (Homo sapiens) (UniProt Q14671)
T9 sequence: T1 sequence with Q36R, F37G, R40I

[10] = molecular target: T10, PUM1 PUF domain R1-RGM S863R + R864G + Q867M (Homo sapiens) (UniProt Q14671)
T10 sequence: T1 sequence with Q36R, F37G, R40M

[11] = molecular target: T11, PUM1 PUF domain R1-RGV S863R + R864G + Q867V (Homo sapiens) (UniProt Q14671)
T11 sequence: T1 sequence with Q36R, F37G, R40V

[12] = molecular target: T12, PUM1 PUF domain R1-RHR S863R + R864H + Q867R (Homo sapiens) (UniProt Q14671)
T12 sequence: T1 sequence with Q36R, F37H

[13] = molecular target: T13, PUM1 PUF domain R1-RKL S863R + R864K + Q867L (Homo sapiens) (UniProt Q14671)
T13 sequence: T1 sequence with Q36R, F37K, R40L

[14] = molecular target: T14, PUM1 PUF domain R1-RKR S863R + R864K + Q867R (Homo sapiens) (UniProt Q14671)
T14 sequence: T1 sequence with Q36R, F37K

[15] = molecular target: T15, PUM1 PUF domain R1-RLE S863R + R864L + Q867E (Homo sapiens) (UniProt Q14671)
T15 sequence: T1 sequence with Q36R, F37L, R40E

[16] = molecular target: T16, PUM1 PUF domain R1-RLS S863R + R864L + Q867S (Homo sapiens) (UniProt Q14671)
T16 sequence: T1 sequence with Q36R, F37L, R40S

[17] = molecular target: T17, PUM1 PUF domain R1-QLD S863Q + R864L + Q867D (UniProt Q14671)
T17 sequence: T1 sequence with F37L, R40D

[18] = molecular target: T18, PUM1 PUF domain R1-RCL S863R + R864C + Q867L (Homo sapiens) (UniProt Q14671)
T18 sequence: T1 sequence with Q36R, F37C, R40L

[19] = molecular target: T19, PUM1 PUF domain R1-QFR R2-VFQ R6-SWD R7-NPG S863Q + R864F + Q867R + N899V + Y900F + N1043S + Y1044W + Q1047D + S1079N + N1080P + E1083G (Homo sapiens) (UniProt Q14671)
T19 sequence: T1 sequence with N72V, Y73F, N216S, Y217W, Q220D, S252N, N253P, E256G

[20] = molecular target: T20, PUM1 PUF domain R1-QFR R2-VFQ R6-SWD S863Q + R864F + Q867R + N899V + Y900F + N1043S + Y1044W + Q1047D (Homo sapiens) (UniProt Q14671)
T20 sequence: T1 sequence with N72V, Y73F, N216S, Y217W, Q220D

Work on “GGCUAGAACUAGUGGAUCCCCCGGCGCCCGGCGGCUCGAGCCCGGGUAAGUGUAAAUGGUCUGCAUGCCGCCGGGCGCCAUGCCUGCAGGUCGACUCUAGAAAACAUG” yielded a binding signal (log2 enrichment (interaction score)) [1] of -2.13, a binding signal (log2 enrichment (interaction score)) [2] of 0.26 and a binding signal (log2 enrichment (interaction score)) [3] of -2.7. The binding signal (log2 enrichment (interaction score)) [4] was -2.43, the binding signal (log2 enrichment (interaction score)) [5] was -2.89 and the binding signal (log2 enrichment (interaction score)) [6] was -1.43. It also gave a binding signal (log2 enrichment (interaction score)) [7] of -3.05, a binding signal (log2 enrichment (interaction score)) [8] of under -6.36 and a binding signal (log2 enrichment (interaction score)) [9] of -0.47. It also gave a binding signal (log2 enrichment (interaction score)) [10] of -0.64, a binding signal (log2 enrichment (interaction score)) [11] of -0.01 and a binding signal (log2 enrichment (interaction score)) [12] of -0.44. It also gave a binding signal (log2 enrichment (interaction score)) [13] of 0.78, a binding signal (log2 enrichment (interaction score)) [14] of -0.68 and a binding signal (log2 enrichment (interaction score)) [15] of 0.82. The binding signal (log2 enrichment (interaction score)) [16] was -0.28.
“GGCUAGAACUAGUGGAUCCCCCGGCGCCCGGCGGCUCGAGCCCGGGUAAGUGUAAAUCGUCUGCAUGCCGCCGGGCGCCAUGCCUGCAGGUCGACUCUAGAAAACAUG” gave a binding signal (log2 enrichment (interaction score)) [17] of under -7.56.
“GGCUAGAACUAGUGGAUCCCCCGGCGCCCGGCGGCUCGAGCCCGGGUAAGUGUAAAUUGUCUGCAUGCCGCCGGGCGCCAUGCCUGCAGGUCGACUCUAGAAAACAUG” gave a binding signal (log2 enrichment (interaction score)) [18] of -0.03.
Work on “GGCUAGAACUAGUGGAUCCCCCGGCGCCCGGCGGCUCGAGCCCGGGUAAGUUGAAAACGUCUGCAUGCCGCCGGGCGCCAUGCCUGCAGGUCGACUCUAGAAAACAUG” yielded a binding signal (log2 enrichment (interaction score)) [19] of -2.24.
With “GGCUAGAACUAGUGGAUCCCCCGGCGCCCGGCGGCUCGAGCCCGGGUAAGUUCAUAUAGUCUGCAUGCCGCCGGGCGCCAUGCCUGCAGGUCGACUCUAGAAAACAUG” the binding signal (log2 enrichment (interaction score)) [20] was 3.91.
